Article PMC6345817

Amino acid sequences for entries named in this document (tags omitted). A change or cut given only in a name is not applied to a line headed by its entry.
UniProt Q8WY21: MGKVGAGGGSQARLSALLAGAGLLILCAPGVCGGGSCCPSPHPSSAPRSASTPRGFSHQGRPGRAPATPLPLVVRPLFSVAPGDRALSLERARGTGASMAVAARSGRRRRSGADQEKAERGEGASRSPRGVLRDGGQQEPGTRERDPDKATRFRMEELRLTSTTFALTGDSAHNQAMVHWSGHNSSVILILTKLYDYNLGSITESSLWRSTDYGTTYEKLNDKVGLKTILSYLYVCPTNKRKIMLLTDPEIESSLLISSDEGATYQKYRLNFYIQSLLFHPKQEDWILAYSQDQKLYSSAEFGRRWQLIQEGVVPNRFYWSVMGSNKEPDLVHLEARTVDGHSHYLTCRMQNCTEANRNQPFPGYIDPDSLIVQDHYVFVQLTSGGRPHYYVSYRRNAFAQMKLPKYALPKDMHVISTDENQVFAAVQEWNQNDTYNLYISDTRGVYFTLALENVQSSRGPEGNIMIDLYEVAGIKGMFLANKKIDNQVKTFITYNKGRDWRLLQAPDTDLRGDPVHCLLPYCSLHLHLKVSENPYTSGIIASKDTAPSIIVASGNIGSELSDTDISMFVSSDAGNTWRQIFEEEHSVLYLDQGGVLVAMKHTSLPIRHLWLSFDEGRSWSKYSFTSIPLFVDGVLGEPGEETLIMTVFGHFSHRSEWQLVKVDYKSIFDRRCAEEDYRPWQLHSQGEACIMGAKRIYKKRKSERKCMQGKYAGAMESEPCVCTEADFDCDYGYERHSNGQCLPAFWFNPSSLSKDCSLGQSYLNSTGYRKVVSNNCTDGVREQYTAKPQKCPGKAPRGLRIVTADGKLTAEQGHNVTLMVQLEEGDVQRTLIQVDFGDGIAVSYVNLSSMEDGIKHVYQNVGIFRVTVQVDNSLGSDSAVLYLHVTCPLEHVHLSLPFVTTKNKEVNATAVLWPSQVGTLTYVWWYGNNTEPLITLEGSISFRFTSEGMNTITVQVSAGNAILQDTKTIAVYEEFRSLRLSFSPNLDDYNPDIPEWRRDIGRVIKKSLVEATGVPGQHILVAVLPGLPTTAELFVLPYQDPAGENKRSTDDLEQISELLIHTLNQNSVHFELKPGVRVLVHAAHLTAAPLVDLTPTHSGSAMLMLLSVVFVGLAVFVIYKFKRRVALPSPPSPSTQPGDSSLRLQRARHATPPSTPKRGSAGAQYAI

Experiments:
[1] = biological target: SorLA cytoplasmic domain (K2160–A2214) in fusion with LexA (human (from the printed RefSeq entry)); assay: two-hybrid; commercial library screen by Hybrigenics: SorLA cd as bait, adult human brain random-primed cDNA library in the Y187 yeast strain, by mating
[2] = biological target: SORCS1B cytoplasmic domain K1121-I1168 (pB27 bait) (human (from the printed RefSeq entry)) (UniProt Q8WY21); assay: two-hybrid; pairwise test: pB27 (LexA) bait and pP6 prey plasmids; cells spotted on plates without Leu/Trp/His; 3-AT against bait auto-activation (10 or 15 mM for SorLA-cd, 20 mM for MPR46-cd); done three times
[3] = biological target: SORCS3 cytoplasmic domain K1145-V1122 (pB27 bait) (human (from the printed RefSeq entry)); assay: as above
[4] = biological target: SorLA cytoplasmic domain (K2160–A2214) in fusion with LexA (human (from the printed RefSeq entry)); assay: as above
[5] = biological target: SorLA-cd Δ20–54 (pB27 bait) (human (from the printed RefSeq entry)); assay: as above
[6] = biological target: SorLA-cd Δ29–54 (pB27 bait) (human (from the printed RefSeq entry)); assay: as above
[7] = biological target: SorLA-cd Δ51–54 (pB27 bait) (human (from the printed RefSeq entry)); assay: as above

binding [1]: binds
binding [2]: no binding
binding [3]: no binding
binding [4]: binds
binding [5]: no binding
binding [6]: no binding
binding [7]: binds
B1: HSPA12A fragment T513-Y675 (pP6 prey clone identified by Hybrigenics) (domain or fragment, UniProt O43301 513-675)
chain: TILKGAVLFGLDPAVIKVRRSPLTYGVGVLNRYVEGKHPPEKLLVKDGTRWCTDVFDKFISADQSVALGELVKRSYTPAKPSQLVIVINIYSSEHDNVSFITDPGVKKCGTLRLDLTGTSGTAVPARREIQTLMQFGDTEIKATAIDIATSKSVKVGIDFLNY

binding [1]: binds
B2: GGA-1 VHS domain clones from the adult human brain cDNA library (domain or fragment, UniProt Q9UJY5 17-147)
chain: ATNPLNKELDWASINGFCEQLNEDFEGPPLATRLLAHKIQSPQEWEAIQALTVLETCMKSCGKRFHDEVGKFRFLNELIKVVSPKYLGSRTSEKVKNKILELLYSWTVGLPEEVKIAEAYQMLKKQGIVKS

Results are given in words; binding and its absence hold for the method and conditions named. For some assays here: Binding can be weak; no strength is given. One block for each binder: values may come before it.
